Results: PMC5643494, “TRPA1–FGFR2 binding event is a regulatory oncogenic driver modulated by miRNA-142-3p” (Nature Communications, 2017)
Residue numbers refer to the chain shown, from its start. These are yes or no findings as the source states them, for the method shown. Binding seen in cells or lysates may run through a third protein. Some binding calls cover weakened binding; strength is not graded here. For part of these data: Where a sequence is shown, tags or fusion partners need not be part of it. Values belong to the substance of their own block, whether it stands above or below them.

Chains of the proteins cited; added tags and fusions are not shown.
UniProt O75762: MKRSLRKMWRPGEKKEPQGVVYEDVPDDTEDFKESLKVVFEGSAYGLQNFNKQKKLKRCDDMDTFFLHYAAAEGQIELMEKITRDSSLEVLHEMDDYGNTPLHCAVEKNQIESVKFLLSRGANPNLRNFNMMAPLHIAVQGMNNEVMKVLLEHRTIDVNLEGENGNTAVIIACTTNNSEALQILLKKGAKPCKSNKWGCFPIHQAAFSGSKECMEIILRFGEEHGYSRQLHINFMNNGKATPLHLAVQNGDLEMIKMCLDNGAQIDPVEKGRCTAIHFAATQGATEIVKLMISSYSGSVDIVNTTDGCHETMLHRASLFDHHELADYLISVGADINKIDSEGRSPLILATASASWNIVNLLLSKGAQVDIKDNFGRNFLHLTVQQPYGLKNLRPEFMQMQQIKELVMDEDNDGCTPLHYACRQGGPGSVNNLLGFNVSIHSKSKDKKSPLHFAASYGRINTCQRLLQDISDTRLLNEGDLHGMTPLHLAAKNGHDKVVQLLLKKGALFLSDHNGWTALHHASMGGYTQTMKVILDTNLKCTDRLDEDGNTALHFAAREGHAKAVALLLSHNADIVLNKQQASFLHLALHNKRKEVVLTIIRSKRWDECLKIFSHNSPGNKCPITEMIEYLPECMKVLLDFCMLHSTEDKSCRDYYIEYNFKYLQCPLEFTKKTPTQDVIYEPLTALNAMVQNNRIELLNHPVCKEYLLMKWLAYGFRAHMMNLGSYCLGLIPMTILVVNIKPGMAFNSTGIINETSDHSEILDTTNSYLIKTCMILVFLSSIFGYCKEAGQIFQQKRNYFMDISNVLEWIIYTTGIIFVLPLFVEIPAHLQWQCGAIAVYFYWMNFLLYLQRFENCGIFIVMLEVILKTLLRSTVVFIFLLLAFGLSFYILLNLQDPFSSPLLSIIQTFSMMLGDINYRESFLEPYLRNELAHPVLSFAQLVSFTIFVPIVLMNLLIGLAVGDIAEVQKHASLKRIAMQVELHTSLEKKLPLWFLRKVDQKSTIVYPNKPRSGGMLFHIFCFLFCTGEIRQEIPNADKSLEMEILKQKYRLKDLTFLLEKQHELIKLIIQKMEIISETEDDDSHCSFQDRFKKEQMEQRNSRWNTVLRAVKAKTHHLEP

Legend:
[1] = target: transient receptor potential ankyrin-1 (TRPA1), endogenous in HCC-515 cells (human (endogenous in HCC-515)) (UniProt O75762); experiment: proximity ligation; Duolink PLA in fixed HCC-515 cells with antibodies against endogenous FGFR2 and TRPA1
[2] = target: transient receptor potential ankyrin-1 (TRPA1), endogenous in HCC-515 cells (human (endogenous in HCC-515)) (UniProt O75762); experiment: co-IP; HCC-515 lysate, IP with anti-TRPA1, IB for FGFR2; cells non-stimulated or stimulated with FGF9 and/or AITC
[3] = target: full-length GFP-tagged TRPA1 (TRPA1-GFP) (UniProt O75762); experiment: co-IP; HEK 293T cells co-transfected with TRPA1-GFP and FGFR2 (FL or ΔE); IP and IB with the indicated antibodies
[4] = target: T1, GST fusion of FGFR2 residues 764-821 with P804A (C4) (UniProt P21802); experiment: pull-down; GST constructs on glutathione-sepharose beads incubated with lysate of HEK 293T cells transfected with TRPA1; western blot; only the target purified
T1 sequence: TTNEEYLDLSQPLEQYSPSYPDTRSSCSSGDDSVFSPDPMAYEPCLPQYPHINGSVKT

[5] = target: T2, GST fusion of the last 58 amino acids of FGFR2 (residues 764-821), wild-type construct (C) (UniProt P21802); experiment: as above
T2 sequence: T1 sequence with A41P

[6] = target: FGFR2, Strep-tagged and FLAG-tagged copies co-transfected (UniProt P21802); experiment: proximity ligation; Duolink PLA in HEK 293T cells with antibodies against Strep-tagged and FLAG-tagged FGFR2, with or without TRPA1-GFP

binding [1]: binds
binding [2]: binds
Substance: fibroblast growth factor receptor 2 (FGFR2), endogenous in HCC-515 cells (from UniProt P21802 22-821)

binding [3]: binds
Substance: full-length FGFR2 (FL), transfected (from UniProt P21802 22-821) (receptor)

binding [4]: binds
binding [5]: binds
Substance: full-length GFP-tagged TRPA1 (TRPA1-GFP) (from UniProt O75762 1-1119)

binding [6]: binds
Substance: FGFR2, Strep-tagged and FLAG-tagged copies co-transfected (from UniProt P21802 22-821) (receptor)
